# Some entries share one result that the patent states for a list of compounds.
# Tested on: HIV-1 strain HTLVIIIB
# Assay: p24 antigen production in HIV-1 infected PBMCs
# Assay type: cell-based
# Settings: HIV-1 HTLVIIIB infected human PBMC; values in nM; listed as PHI-255
# Description: The HTLVIIIB strain of HIV-1 was propagated in CCRF-CEM cells and the virus stocks obtained from cell-free supernatants of infected cells were titered using MT-2 cells. Cell-free supernatants were harvested and frozen in 1 ml aliquots at −70° C.
# Stock solutions (10 mM) of thiourea compounds were prepared in dimethylsulfoxide (DMSO). Cells were cultured for 7 days in 96-well microtiter plates (100 μl/well; 2×10^6 cells/ml, triplicate wells) in the presence and absence of various concentrations (0.001 μM to 100 μM) of the thioureas. Cells from non-infected controls were handled in the same way except the virus was omitted from the preparation. Aliquots of culture supernatants were removed from the wells on the 7th day after infection for p24 antigen as previously described. The p24 enzyme immunoassay was the unmodified kinetic assay available commercially (Coulter Corporation/Immunotech, Inc., Westbrook, Me.). […] The plates were read on a ELISA reader (Molecular Devices, Sunnyvale, Calif.) at 650 nm and p24 levels, expressed as ng/ml, were calculated against known standards supplied by Coulter/Imrunotech, Inc. Percent viral inhibition was calculated by comparing the p24 values for the test substance-treated infected cells with the p24 values for untreated infected cells (i.e., virus controls). […]
compound,measurement,value
S=C(NCCc1ccc(Cl)cc1)Nc1ccc(Br)cn1 [HI 255],IC50,< 1 nM

# Source: patent publication US6774139B1, “Dual function microbicides” (Parker Hughes Institute, priority 2000, dated 2004)
